Assay: Boc solid-phase peptide synthesis; chloromethylated resin
Conditions: whole synthesis, capillary zone electrophoresis

Substance	final purity (method not given)
(cyclo)H-Cys-Lys-Phe-Phe-D-Trp-N^αMeIAmp-Thr-Tyr-Thr-Ser-Cys-OH	greater than 98% pure
(cyclo)H-Cys-Lys-Phe-Phe-D-Trp-IAmp-Thr-Tyr-Thr-Ser-Cys-OH	greater than 98% pure
